In PMC11579293 one finds binding data, which are given here for one substance.

Amino acid sequences for entries named in this document (tags omitted).
UniProt P08207: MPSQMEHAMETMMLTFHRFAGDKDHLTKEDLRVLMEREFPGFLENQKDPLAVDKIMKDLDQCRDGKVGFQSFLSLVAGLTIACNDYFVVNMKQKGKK
UniProt P07356: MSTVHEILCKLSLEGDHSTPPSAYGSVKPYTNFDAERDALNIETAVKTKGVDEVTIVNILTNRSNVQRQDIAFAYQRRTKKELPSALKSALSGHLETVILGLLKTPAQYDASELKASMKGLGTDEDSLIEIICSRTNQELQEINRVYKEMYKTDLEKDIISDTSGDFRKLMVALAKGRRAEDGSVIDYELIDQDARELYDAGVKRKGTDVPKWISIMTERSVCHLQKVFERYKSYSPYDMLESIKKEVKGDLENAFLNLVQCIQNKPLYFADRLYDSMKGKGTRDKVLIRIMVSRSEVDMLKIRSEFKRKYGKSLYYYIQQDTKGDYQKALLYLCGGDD

The assay has as its target S100A10 (mouse (endogenous in primary murine MSC)) (UniProt P08207). Briefly: co-IP; MSC lysed in RIPA buffer (50 mM Tris HCl pH 7.4, 150 mM NaCl, 1% Triton X-100, 1% Na DOC, 0.1% SDS, 1 mM EDTA); 2 ug antibody against S100A10 for 3 h at 4 C, then Dynabeads Protein G overnight at 4 C; washes with ice cold RIPA; SDS-PAGE and immunoblot. (A western blot detects proteins with antibodies after separation by electrophoresis.)

No constants are given. Whether binding was seen depends on the method and setting. In cells and extracts the contact can be indirect. Some results given as binding are weak or reduced against the parent protein; the word gives no strength.

Turning to annexin A2 (from UniProt P07356 1-339), the binding entry is listed as “binds”.
